Assay results as given in patent US20180187196, “INHIBITORS OF DEK PROTEIN AND RELATED METHODS” (THE REGENTS OF THE UNIVERSITY OF MICHIGAN, published 2018).
Where a protein sequence is shown, tags need not be part of it. For at least one entry, the source does not settle the construct or the ends of the probe.

Legend:
[1] = biological target: T1, DEK (endogenous, released by activated neutrophils) (Homo sapiens) (UniProt P35659); assay: activity in cells; details: protein in cells, single-stranded DNA
T1 sequence (looked up, limits assumed): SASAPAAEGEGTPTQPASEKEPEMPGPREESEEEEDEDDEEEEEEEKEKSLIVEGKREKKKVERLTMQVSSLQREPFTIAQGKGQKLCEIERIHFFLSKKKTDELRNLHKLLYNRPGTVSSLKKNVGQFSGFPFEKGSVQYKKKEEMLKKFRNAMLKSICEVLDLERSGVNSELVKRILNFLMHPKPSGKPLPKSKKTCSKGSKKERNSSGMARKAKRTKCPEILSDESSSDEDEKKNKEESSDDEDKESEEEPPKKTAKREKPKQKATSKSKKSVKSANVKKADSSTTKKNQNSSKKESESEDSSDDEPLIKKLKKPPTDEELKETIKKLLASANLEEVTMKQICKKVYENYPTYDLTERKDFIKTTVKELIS

[2] = biological target: T2, DEK (Homo sapiens) (UniProt P35659); assay: SELEX; details: described as high affinity, binds tightly; binding buffer 20 mM Tris pH 7.6, 100 mM NaCl, 5 mM MgCl2, room temperature; purified recombinant protein; single-stranded DNA; variant of DEK aptamer 64
T2 sequence (looked up, limits assumed): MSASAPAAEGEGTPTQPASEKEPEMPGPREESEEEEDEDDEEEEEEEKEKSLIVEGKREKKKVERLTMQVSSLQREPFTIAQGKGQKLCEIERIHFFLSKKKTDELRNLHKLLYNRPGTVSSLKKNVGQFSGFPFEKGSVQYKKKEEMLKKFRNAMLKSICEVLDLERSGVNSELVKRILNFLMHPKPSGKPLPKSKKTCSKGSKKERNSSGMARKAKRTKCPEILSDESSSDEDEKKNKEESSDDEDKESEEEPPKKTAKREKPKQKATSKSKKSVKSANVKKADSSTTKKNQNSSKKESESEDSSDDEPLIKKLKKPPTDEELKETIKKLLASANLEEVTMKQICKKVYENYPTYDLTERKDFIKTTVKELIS

[3] = biological target: T3, DEK (endogenous, mouse knee joint) (Mus musculus) (UniProt Q7TNV0); assay: activity in cells; details: in vivo zymosan-induced arthritis; 5, 50 and 100 ng/knee significantly reduce joint inflammation vs control aptamer; protein in cells; single-stranded DNA; variant of DEK aptamer 64
T3 sequence (looked up, limits assumed): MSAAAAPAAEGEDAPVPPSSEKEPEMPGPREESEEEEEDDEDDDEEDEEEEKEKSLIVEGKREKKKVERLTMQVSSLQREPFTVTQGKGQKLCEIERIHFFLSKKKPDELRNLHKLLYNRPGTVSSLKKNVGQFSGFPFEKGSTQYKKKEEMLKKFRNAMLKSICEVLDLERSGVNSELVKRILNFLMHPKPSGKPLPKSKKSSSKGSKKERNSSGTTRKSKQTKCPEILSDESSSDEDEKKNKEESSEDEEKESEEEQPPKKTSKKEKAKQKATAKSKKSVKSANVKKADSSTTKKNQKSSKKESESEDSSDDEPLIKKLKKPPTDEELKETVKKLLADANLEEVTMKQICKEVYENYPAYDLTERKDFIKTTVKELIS

[4] = impedes NET formation by activated human neutrophils, aptamers at 1-50 ng/ml

“ATAGGGAGTCGACCGACCAGAATACCGTGGCATCTGGTTGTAGCATCACGTCTTATGCGGCCGTATGTGCGTCTACATCTAGACT [DEK aptamer 85]” was tested, and the “functional effect of the aptamer” value [1, 4] was “active”.

“GGGGTTAAATATTCCCACATTGCCTGCGCCAGTACAAATAG [DTA 64 (40-nt core)]” was tested, and the selection result [2] was “selected”, the “functional effect of the aptamer” value [3] was “active” and the “functional effect of the aptamer” value ([1]; dose-dependent block of PMA-induced NETs in human neutrophils, variant of DEK aptamer 64, dose not given here) was “active”.

For “ATAGGGAGTCGACCGACCAGAAGGGGTTAAATATTCCCACATTGCCTGCGCCAGTACAAATAGTATGTGCGTCTACATCTAGACT [DEK aptamer 64]”, the “functional effect of the aptamer” value [1, 4] was “active”.
